The supplement of paper PMC12067093, “Discovery and optimisation of a covalent ligand for TRIM25 and its application to targeted protein ubiquitination” (Chemical Science, 2025)
This is one part of the list.

The chains behind the UniProt entries cited, without tags or fusion partners. Where a name states a change or a piece, a line headed by the entry shows the natural chain unless it says otherwise.
UniProt Q9P2K8: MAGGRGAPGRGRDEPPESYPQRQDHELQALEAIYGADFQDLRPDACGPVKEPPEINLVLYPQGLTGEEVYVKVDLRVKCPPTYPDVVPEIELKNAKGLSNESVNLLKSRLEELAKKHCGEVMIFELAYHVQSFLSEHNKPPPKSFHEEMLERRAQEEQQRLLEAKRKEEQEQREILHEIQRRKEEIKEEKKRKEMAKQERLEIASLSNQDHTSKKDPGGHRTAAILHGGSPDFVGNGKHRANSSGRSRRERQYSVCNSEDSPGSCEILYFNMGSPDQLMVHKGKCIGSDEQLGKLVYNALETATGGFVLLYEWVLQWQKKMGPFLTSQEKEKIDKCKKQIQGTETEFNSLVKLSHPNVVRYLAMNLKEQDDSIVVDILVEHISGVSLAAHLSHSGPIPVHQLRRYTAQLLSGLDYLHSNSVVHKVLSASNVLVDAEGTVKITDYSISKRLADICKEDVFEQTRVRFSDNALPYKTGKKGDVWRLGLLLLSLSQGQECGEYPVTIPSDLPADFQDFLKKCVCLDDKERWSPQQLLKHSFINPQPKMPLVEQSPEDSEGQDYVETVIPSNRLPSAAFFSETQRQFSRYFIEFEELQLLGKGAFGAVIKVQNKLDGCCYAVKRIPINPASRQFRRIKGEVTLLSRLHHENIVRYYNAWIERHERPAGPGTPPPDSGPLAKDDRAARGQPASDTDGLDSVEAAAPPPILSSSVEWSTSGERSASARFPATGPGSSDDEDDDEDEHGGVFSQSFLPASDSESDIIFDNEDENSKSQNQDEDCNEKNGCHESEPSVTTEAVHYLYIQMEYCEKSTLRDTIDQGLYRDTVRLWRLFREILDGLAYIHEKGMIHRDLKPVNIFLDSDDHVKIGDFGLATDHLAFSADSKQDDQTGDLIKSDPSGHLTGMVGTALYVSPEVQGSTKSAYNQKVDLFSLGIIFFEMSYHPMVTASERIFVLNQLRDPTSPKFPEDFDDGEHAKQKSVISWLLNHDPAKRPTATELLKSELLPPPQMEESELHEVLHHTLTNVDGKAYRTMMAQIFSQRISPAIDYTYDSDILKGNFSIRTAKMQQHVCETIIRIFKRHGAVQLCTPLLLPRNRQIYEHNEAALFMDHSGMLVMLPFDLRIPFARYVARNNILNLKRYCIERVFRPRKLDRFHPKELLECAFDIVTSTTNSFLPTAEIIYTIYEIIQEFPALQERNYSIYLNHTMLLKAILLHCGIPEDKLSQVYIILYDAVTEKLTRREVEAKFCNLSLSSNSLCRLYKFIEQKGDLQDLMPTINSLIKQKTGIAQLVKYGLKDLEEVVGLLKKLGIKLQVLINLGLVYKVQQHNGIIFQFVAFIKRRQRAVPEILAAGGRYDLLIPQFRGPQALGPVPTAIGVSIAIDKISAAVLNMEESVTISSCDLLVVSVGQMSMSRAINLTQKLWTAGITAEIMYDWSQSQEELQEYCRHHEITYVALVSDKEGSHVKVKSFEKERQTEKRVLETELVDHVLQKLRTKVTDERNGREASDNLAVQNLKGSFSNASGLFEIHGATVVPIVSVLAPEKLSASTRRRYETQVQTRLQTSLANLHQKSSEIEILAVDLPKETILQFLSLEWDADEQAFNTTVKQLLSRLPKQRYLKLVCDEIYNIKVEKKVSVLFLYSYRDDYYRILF
UniProt Q96KQ7: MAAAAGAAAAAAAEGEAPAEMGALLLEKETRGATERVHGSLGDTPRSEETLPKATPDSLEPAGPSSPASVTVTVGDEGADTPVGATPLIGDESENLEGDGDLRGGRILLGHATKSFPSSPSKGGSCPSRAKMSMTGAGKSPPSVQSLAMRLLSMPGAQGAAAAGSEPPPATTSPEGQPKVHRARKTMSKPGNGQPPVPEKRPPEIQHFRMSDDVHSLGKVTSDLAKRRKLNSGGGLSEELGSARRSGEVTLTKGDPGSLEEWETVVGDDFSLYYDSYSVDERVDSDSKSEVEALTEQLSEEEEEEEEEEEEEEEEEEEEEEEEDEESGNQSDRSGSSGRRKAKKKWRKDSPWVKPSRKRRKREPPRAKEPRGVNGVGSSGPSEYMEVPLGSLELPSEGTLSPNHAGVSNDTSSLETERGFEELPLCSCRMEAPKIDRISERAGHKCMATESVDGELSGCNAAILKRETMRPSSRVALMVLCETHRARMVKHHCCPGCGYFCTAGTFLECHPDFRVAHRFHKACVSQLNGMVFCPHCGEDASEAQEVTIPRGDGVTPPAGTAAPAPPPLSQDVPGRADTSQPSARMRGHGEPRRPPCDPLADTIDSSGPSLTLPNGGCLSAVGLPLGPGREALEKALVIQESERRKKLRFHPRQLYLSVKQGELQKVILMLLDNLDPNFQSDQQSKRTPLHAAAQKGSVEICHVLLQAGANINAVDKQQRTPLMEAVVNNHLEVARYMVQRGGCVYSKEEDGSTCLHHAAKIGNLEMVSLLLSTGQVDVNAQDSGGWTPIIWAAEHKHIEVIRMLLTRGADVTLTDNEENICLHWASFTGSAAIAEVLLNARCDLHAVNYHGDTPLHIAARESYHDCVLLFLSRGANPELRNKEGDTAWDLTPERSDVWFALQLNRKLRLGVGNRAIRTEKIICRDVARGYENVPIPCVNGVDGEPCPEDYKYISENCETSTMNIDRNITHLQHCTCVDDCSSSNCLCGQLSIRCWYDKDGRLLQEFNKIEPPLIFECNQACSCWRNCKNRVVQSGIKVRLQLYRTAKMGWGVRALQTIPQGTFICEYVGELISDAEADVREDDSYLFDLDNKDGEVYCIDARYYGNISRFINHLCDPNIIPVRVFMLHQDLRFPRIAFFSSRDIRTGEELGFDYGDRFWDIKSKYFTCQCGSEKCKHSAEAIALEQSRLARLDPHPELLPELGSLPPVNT
UniProt O75521: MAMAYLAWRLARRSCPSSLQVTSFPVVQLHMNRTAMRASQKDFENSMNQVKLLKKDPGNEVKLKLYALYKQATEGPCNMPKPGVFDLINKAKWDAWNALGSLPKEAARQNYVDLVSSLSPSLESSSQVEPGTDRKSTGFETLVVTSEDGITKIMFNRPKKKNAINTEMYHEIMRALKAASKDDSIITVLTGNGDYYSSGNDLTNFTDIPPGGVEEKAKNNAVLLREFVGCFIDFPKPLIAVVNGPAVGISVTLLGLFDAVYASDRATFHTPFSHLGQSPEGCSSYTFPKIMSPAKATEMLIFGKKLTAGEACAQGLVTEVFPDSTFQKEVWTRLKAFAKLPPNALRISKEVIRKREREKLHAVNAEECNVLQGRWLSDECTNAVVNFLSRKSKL
UniProt Q96F86: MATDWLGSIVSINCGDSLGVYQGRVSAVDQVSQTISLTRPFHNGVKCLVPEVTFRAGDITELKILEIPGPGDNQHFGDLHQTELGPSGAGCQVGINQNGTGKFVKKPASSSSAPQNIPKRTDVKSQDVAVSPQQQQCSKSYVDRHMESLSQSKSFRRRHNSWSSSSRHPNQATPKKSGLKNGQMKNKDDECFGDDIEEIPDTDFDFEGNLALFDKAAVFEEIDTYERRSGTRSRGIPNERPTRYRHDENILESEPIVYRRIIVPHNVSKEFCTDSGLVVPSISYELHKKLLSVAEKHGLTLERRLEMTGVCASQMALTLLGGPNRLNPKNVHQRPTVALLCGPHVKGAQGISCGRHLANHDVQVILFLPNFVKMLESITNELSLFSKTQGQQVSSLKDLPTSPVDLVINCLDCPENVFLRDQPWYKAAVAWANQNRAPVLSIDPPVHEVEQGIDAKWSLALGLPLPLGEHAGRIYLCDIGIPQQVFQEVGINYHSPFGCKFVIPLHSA
UniProt P68104, whole entry, looked up: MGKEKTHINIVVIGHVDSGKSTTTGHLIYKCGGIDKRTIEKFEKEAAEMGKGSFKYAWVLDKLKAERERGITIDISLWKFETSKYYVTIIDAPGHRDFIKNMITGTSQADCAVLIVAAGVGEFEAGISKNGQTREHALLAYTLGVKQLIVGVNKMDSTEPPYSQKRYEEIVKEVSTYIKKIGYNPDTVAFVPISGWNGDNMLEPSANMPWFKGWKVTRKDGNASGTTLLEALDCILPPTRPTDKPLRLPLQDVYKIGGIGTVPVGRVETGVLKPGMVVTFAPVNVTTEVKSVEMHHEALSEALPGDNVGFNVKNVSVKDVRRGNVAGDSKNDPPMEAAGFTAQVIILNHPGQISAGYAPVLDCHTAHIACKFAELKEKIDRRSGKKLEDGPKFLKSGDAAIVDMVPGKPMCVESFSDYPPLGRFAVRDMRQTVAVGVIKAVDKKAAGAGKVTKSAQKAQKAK
UniProt Q5JPI9: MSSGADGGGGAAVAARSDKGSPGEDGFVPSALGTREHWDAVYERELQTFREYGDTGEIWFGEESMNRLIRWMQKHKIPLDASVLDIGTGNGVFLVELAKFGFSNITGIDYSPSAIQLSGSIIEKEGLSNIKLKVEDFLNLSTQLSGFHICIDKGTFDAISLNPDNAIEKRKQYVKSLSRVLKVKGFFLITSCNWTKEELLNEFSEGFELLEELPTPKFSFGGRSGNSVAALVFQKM
UniProt Q15029: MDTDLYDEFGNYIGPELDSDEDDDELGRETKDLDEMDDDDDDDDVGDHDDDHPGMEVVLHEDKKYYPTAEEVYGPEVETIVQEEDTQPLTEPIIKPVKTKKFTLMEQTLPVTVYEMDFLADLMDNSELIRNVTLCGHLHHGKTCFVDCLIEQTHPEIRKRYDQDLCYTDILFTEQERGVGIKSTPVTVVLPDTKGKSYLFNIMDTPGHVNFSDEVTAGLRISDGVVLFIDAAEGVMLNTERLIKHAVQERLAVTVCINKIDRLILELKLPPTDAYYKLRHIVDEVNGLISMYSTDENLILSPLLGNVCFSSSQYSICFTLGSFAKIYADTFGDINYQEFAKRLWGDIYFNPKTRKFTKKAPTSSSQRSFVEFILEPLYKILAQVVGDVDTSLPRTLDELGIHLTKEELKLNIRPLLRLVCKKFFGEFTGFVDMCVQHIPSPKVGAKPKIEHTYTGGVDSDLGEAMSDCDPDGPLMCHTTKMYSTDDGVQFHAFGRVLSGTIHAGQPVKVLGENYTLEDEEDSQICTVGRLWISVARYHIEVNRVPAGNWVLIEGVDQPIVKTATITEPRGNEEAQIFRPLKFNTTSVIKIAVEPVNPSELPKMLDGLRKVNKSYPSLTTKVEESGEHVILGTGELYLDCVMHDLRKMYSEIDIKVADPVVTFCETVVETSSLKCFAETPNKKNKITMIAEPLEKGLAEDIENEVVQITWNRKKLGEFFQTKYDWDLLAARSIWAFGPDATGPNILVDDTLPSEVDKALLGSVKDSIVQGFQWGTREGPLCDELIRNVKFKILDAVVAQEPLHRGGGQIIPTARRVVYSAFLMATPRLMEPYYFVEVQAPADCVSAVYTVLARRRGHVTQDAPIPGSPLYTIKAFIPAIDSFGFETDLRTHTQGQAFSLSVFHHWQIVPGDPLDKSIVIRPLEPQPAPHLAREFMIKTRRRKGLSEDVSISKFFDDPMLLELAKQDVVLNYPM
UniProt Q13144, whole entry, looked up: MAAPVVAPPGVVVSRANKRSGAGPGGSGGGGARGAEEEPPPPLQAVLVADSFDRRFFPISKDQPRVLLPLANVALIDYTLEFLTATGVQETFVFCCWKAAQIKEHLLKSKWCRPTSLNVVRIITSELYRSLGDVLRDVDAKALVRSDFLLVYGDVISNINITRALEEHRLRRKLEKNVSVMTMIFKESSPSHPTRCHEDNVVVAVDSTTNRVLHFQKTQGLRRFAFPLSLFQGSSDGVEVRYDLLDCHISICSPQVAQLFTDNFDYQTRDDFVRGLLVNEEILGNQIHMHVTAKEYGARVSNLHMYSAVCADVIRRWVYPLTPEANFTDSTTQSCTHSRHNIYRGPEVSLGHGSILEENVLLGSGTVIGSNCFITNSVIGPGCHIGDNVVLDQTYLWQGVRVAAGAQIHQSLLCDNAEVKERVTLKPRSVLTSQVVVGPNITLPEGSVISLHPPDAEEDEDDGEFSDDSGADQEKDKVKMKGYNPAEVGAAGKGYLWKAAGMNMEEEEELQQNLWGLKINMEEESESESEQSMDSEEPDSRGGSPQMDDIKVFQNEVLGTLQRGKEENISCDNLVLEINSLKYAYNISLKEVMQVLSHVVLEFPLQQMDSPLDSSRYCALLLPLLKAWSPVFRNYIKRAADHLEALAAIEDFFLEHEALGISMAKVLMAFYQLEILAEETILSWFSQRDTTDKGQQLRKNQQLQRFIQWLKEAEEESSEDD
UniProt P20042, whole entry, looked up: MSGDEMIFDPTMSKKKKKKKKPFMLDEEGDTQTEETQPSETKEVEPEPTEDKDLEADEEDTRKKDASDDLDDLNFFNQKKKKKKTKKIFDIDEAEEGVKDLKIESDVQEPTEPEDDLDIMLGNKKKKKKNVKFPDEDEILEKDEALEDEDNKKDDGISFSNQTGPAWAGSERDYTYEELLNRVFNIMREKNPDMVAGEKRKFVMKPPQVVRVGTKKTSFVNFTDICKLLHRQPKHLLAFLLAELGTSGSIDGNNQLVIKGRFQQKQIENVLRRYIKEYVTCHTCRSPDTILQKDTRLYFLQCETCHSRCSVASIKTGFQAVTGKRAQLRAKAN

Compound: Cc1cc(ccc1-c1ccccc1)C(=O)N1CCCN(CC1)C(=O)CCl [compound 10]
Test: probe-labelled cysteine peptide fold change vs DMSO (competition) (log2 fold change); higher = less target engagement (more negative = stronger competition)
Conditions: THP-1, incubation time: 4 h
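Further: competitive profiling in live THP-1 cells: cysteine peptides tagged with an iodoacetamide desthiobiotin (IA-DTB) probe, intensity after compound treatment relative to DMSO-treated cells.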

Target | probe-labelled cysteine peptide fold change (10 µM) | probe-labelled cysteine peptide fold change (50 µM)
EFEMP1_Q12805_338_TCQDINECETTNECREDEMCWNYHGGFR (UniProt Q12805) | -0.451 | -0.112
EIF2AK4_Q9P2K8_118_HCGEVMIFELAYHVQSFLSEHNKPPPK (UniProt Q9P2K8) | 0.0411 | 0.347
EIF2B3_Q9NR50_206_FHTGLVDAHLYCLK (UniProt Q9NR50) | -0.00252 | -0.338
EIF2S1_P05198_218_AGLNCSTENMPIK (UniProt P05198) | -0.0254 | -0.158
EHMT2_Q96KQ7_946_GYENVPIPCVNGVDGEPCPEDYK (UniProt Q96KQ7) | -0.0885 | 0.137
ECI2_O75521_77_QATEGPCNMPKPGVFDLINK (UniProt O75521) | 0.0595 | -0.44
EDC3_Q96F86_341_NVHQRPTVALLCGPHVK (UniProt Q96F86) | 0.0629 | 0.0808
EEF1A1_P68104_411_PMCVESFSDYPPLGR (UniProt P68104) | -0.147 | 0.165
EDC4_Q6P2E9_4_ASCASIDIEDATQHLR (UniProt Q6P2E9) | -0.0991 | 0.278
EEF1AKMT2_Q5JPI9_150_LKVEDFLNLSTQLSGFHICIDK (UniProt Q5JPI9) | 0.128 | -0.101
EFTUD2_Q15029_525_VLGENYTLEDEEDSQICTVGR (UniProt Q15029) | -0.0378 | 0.284
EIF2B5_Q13144_335_WVYPLTPEANFTDSTTQSCTHSR (UniProt Q13144) | 0.00158 | 0.277
ECM1_Q16610_395_HPPSPTRDECFAR (UniProt Q16610) | -0.264 | -0.241
EIF2S3_P41091_96+101_LDDPSCPRPECYR (UniProt P41091) | -0.389 | -0.339
EHMT2_Q96KQ7_428_GFEELPLCSCR (UniProt Q96KQ7) | 0.0422 | 0.126
EIF2A_Q9BY44_366_PVASDSTYFAWCPDGEHILTATCAPR (UniProt Q9BY44) | 0.0534 | 0.231
EFTUD2_Q15029_148_TCFVDCLIEQTHPEIR (UniProt Q15029) | 0.169 | -0.0843
EEF1A2_Q05639_326_GNVCGDSK (UniProt Q05639) | -0.272 | -0.14
EEF2_P13639_536+557_SDPMVQCIIEESGEHIIAGAGELHLEICLK (UniProt P13639) | -0.0519 | -0.0734
EIF2B5_Q13144_618_YCALLLPLLK (UniProt Q13144) | 0.0519 | 0.494
EEF1A1_P68104_234_DGNASGTTLLEALDCILPPTRPTDKPLR (UniProt P68104) | -0.0294 | -0.384
EEF2_P13639_466_YVEPIEDVPCGNIVGLVGVDQFLVK (UniProt P13639) | -0.0177 | 0.135
EIF2S2_P20042_302+305_LYFLQCETCHSR (UniProt P20042) | -0.169 | -0.328
EDC3_Q96F86_311_LEMTGVCASQMALTLLGGPNR (UniProt Q96F86) | 0.0796 | -0.0526

Random excerpt: 2 entries already listed, in no set order.
Target | probe-labelled cysteine peptide fold change (10 µM) | probe-labelled cysteine peptide fold change (50 µM)
EEF1AKMT2_Q5JPI9_150_LKVEDFLNLSTQLSGFHICIDK (UniProt Q5JPI9) | 0.128 | -0.101
EEF1A1_P68104_234_DGNASGTTLLEALDCILPPTRPTDKPLR (UniProt P68104) | -0.0294 | -0.384
